According to PubChem BioAssay (EPA / NIEHS):
The shares of active, inactive and inconclusive entries below differ from those in the screen. For some assays here: Potencies of inconclusive entries are doubtful fits and often do not repeat. Active and inactive are the calls of the source. How the source made its calls: active means hit-call score of the fitted dose curve at least 0.9, where 1 is the maximum; inconclusive means response in the unintended direction; inactive means score below 0.9.

Amino acid sequences for entries named in this document (tags omitted). A change or cut given only in a name is not applied to a line headed by its entry.
UniProt P10275: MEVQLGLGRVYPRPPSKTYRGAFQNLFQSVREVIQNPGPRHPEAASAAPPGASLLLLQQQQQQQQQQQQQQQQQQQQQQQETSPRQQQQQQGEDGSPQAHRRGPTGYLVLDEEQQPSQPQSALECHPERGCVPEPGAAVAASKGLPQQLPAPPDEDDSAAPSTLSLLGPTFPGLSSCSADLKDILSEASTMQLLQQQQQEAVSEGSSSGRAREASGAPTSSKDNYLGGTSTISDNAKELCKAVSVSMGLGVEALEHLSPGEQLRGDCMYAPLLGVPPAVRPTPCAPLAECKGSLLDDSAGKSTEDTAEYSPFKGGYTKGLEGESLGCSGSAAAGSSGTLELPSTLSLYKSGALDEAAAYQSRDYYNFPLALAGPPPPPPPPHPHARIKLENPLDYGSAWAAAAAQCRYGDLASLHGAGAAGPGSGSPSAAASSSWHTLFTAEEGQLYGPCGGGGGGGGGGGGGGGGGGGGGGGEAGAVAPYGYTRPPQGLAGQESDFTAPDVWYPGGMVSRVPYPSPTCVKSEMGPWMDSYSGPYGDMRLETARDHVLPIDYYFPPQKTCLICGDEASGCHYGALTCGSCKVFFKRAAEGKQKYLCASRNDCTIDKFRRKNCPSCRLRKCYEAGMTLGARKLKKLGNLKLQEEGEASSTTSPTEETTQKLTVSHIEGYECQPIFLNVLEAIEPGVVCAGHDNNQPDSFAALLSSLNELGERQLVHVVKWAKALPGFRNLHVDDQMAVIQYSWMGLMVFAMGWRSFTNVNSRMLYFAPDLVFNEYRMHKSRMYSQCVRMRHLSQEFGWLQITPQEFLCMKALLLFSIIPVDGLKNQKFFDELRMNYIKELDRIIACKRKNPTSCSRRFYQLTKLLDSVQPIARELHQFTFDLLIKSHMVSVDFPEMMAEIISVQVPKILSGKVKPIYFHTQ
UniProt P03372, whole entry, looked up: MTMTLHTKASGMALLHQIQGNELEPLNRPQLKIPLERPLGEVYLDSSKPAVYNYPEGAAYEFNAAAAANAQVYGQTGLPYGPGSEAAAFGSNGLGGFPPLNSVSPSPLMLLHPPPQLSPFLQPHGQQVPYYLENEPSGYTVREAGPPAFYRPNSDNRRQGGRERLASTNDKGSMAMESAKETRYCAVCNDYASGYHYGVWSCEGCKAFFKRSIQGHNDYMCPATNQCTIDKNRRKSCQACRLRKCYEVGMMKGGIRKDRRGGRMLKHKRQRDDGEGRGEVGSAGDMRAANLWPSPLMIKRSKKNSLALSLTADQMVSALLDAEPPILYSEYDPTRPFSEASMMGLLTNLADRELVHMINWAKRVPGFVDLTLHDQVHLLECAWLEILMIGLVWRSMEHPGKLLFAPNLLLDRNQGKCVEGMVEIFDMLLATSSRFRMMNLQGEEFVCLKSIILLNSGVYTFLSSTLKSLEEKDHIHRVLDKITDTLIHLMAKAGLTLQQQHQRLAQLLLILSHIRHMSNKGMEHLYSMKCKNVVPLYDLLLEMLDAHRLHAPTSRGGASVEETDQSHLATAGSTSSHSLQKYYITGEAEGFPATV

Key:
[1] = biological target: Nucleoli Translocation, AR (gene 367) (UniProt P10275); assay: UPITT_HCI_U2OS_AR_TIF2_Nucleoli_Antagonist: University of Pittsburgh U2OS Androgen Receptor-Transcriptional Intermediary Factor 2 (AR-TIF2) Antagonism High Content Imaging Assay for Nucleoli Translocation (AID 2283997)
In short: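 Compounds are added at 20 uM final concentration in 0.2% DMSO to U2OS cells carrying AR-RFP and TIF2-GFP fusions. Nucleolar AR-RFP fluorescence is then quantified by automated imaging. Antagonism is fitted positively against DHT baseline.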

[2] = biological target: Nucleoli Translocation, AR (gene 367) (UniProt P10275); assay: UPITT_HCI_U2OS_AR_TIF2_Nucleoli_Agonist: University of Pittsburgh U2OS Androgen Receptor-Transcriptional Intermediary Factor 2 (AR-TIF2) Agonism High Content Imaging Assay for Nucleoli Translocation (AID 2283998)
In short: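 Nucleolar translocation of AR-RFP, with TIF2-GFP coexpressed in human osteosarcoma U2OS, imaged by high-content fluorescence. Compounds tested singly at 20 uM final, confirmed in triplicate, then titrated 0.195–50 uM final; gain-of-signal relative to DMSO.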

[3] = biological target: Ratio of Nucleoli Translocation and Cytoplasm, AR (gene 367) (UniProt P10275); assay: UPITT_HCI_U2OS_AR_TIF2_Nucleoli_Cytoplasm_Ratio_Antagonist: University of Pittsburgh U2OS Androgen Receptor-Transcriptional Intermediary Factor 2 (AR-TIF2) Antagonism High Content Imaging Assay for Ratio of Nucleoli Translocation and Cytoplasm (AID 2283999);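 further: antagonists lower the DHT-driven ratio of nucleolar to cytoplasmic red signal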
In short: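 Read-out is the ratio of nucleolar to cytoplasmic AR-RFP fluorescence, imaged by high-content microscopy in U2OS cells coexpressing TIF2-GFP. Single-point 20 uM screen, triplicate confirmation, then 0.195–50 uM dose response; activity referenced to DHT baseline.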

[4] = biological target: Ratio of Nucleoli Translocation and Cytoplasm, AR (gene 367) (UniProt P10275); assay: UPITT_HCI_U2OS_AR_TIF2_Nucleoli_Cytoplasm_Ratio_Agonist: University of Pittsburgh U2OS Androgen Receptor-Transcriptional Intermediary Factor 2 (AR-TIF2) Agonism High Content Imaging Assay for Ratio of Nucleoli Translocation and Cytoplasm (AID 2284000);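 further: hits raise the red nucleolar to cytoplasm ratio above vehicle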
In short: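 Human osteosarcoma U2OS line, AR-RFP plus TIF2-GFP; compounds 0.195–50 uM final, 0.5% DMSO. Readout: nucleolar/cytoplasmic RFP ratio by HCI, positive direction vs DMSO baseline.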

[5] = CCTE_Harrill_HTTr_CellCount_MCF7: CCTE's Cell Proliferation Assessment for the High-Throughput Transcriptomics (HTTr) Platform, Harrill Lab (AID 2284012);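 further: count of Hoechst-stained nuclei per well by high-content imaging in MCF-7 cells; cells exposed to compound for six hours; intended direction is loss of nuclei count meaning fewer cells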
In short: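 Readout: Hoechst nuclear count by high-content imaging. MCF-7, 8-point dilution series, 6 h exposure. Bidirectional fit vs DMSO baseline.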

[6] = CCTE_Deisenroth_AIME_384WELL_CTox_Active: Cytotoxicity Assessment (CTOX) in CCTE's 384-well Estrogen Receptor Transactivation Assay with AIME metabolic competence (metabolism positive), Deisenroth Lab (AID 2284037);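 further: chemicals first conditioned 2 h by alginate-bound induced rat liver S9 before cells; activity means signal loss indicating cell death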
In short: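 Chemicals pre-incubated 2 hours with alginate-immobilised phenobarbital/beta-naphthoflavone-induced male Sprague Dawley rat liver S9, then conditioned medium applied 24 hour to VM7Luc4E2 cells. Viability by fluorogenic protease substrate; 10-point series 0.002 - 200 uM.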

[7] = biological target: Estrogen receptor (Homo sapiens) (UniProt P03372); assay: CCTE_Deisenroth_AIME_384WELL_LUC_Inactive: CCTE's 384-well Estrogen Receptor Transactivation Assay without AIME metabolic competence (ERTA luciferase; metabolism negative), Deisenroth Lab (AID 2284038);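 further: VM7Luc4E2 breast cells given medium preincubated 2 h with S9-free microspheres; hits raise estrogen receptor luciferase signal so potencies reflect agonists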
In short: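 Metabolism-negative mode: AIME lids stamped in alginate-water, no hepatic S9. 2 h chemical incubation → medium onto VM7Luc4E2 ERTA, 24 h. Readout luciferase luminescence; gain-of-signal fit vs 17beta-estradiol. Conc. 0.002 - 200 uM.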

[8] = CCTE_Deisenroth_AIME_384WELL_CTox_Inactive: Cytotoxicity Assessment (CTOX) in CCTE's 384-well Estrogen Receptor Transactivation Assay without AIME metabolic competence (metabolism negative), Deisenroth Lab (AID 2284039);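 further: cell viability via live-cell protease substrate cleaved to fluorescent probe; cells exposed 24 h to medium preincubated 2 h with alginate-water beads without S9; loss of fluorescence signal means loss of viability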
In short: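 Fluorescence from a live-cell protease substrate, read after 24 h in VM7Luc4E2 cells, indicated viability. Test medium came from a 2 h AIME step without hepatic S9 (alginate-water microspheres); concentrations spanned 0.002 - 200 uM, single technical replicate per run.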

[9] = test system: DIO1 (gene 1733); assay: CCTE_GLTED_hDIO1: CCTE's human Deiodinase 1 (DIO1) Inhibition Assay, Great Lakes Toxicology and Ecology Division (GLTED) Lab (AID 2283987);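 further: isolated human DIO1 enzyme in a cell-free setup rather than cells; enzyme activity read as free iodide liberated from substrate via Sandell-Kolthoff colorimetry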
In short: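 Inhibition read as reduced iodide release: after 3 h of human DIO1 with chemical, free iodide is quantified colorimetrically (Sandell-Kolthoff cerium/arsenic reaction). Triplicate plates, DMSO baseline.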

[10] = CCTE_Shafer_MEA_acute_AB: CCTE's Alamar Blue Assay for Cytotoxicity in the Neural Acute Assay, Shafer Lab (AID 2284069);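 further: active compounds lower the viability signal compared with DMSO wells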
In short: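 Cytotoxicity endpoint for acute MEA exposures of primary rat cortical neurons on day 13 or 15. Resazurin reduction is read fluorescently at 544/590 nm, with DMSO as the negative-control baseline.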

[11] = CCTE_Deisenroth_AIME_96WELL_CTox_Inactive: Cytotoxicity Assessment (CTOX) in CCTE's 96-well Estrogen Receptor Transactivation Assay without AIME metabolic competence (metabolism negative), Deisenroth Lab (AID 2284029)
In short: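 Cytotoxicity in VM7Luc4E2 breast cells was scored as loss of fluorescent signal from a live-cell protease substrate 24 h after exposure, using bidirectional curve fitting. Test media came from a 2 h metabolism-negative pre-incubation (alginate-water, no hepatic S9) of compounds at 0.002-200 uM, with at least four replicates.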

Question: For O=C(O)c1ccccc1C(c1ccc(O)cc1)c1ccc(O)cc1, which AC50 [1] is on record?
Answer: inconclusive: 50 µM

Question: What about the AC50 [2] of the same molecule?
Answer: inconclusive: 9.92 µM

Question: And the AC50 [3]?
Answer: inconclusive: 50 µM

Question: And the AC50 [4]?
Answer: inconclusive: 0.219 µM

Question: And the AC50 [5]?
Answer: inconclusive: 50 µM

Question: What about the outcome [6] of the same molecule?
Answer: inactive

Question: And the AC50 [7]?
Answer: active: 98.9 µM

Question: What about the outcome [8] of the same molecule?
Answer: inactive

Question: For Nc1ccc(S(=O)(=O)c2ccc(N)cc2)cc1, which AC50 [9] is on record?
Answer: inconclusive: 100 µM

Question: Which AC50 [9] does the source give for CCCCCCOC(=O)CC(CC(=O)OCCCCCC)(OC(=O)CCC)C(=O)OCCCCCC here?
Answer: inconclusive: 100 µM

Question: And the outcome [2]?
Answer: inactive

Question: And the AC50 [3]?
Answer: inconclusive: 2.1 µM

Question: And the outcome [5]?
Answer: inactive

Question: Which AC50 [2] does the source give for Cc1cc(C(=C2C=CC(=Nc3ccc(S(=O)(=O)O)cc3)C=C2)c2ccc(Nc3ccc(S(=O)(=O)O)cc3)cc2)cc(S(=O)(=O)O)c1N here?
Answer: inconclusive: 0.0074 µM

Question: And the outcome [3]?
Answer: inactive

Question: What does the source list for CCOc1ccc2c(c1)C(C)=CC(C)(C)N2?
Answer: outcome [2]: inactive; outcome [3]: inactive; AC50 [5]: inconclusive: 50 µM; outcome [6]: inactive; outcome [8]: inactive

Question: For Cc1cccc([N+](=O)[O-])c1C, which AC50 [2] is on record?
Answer: inconclusive: 50 µM

Question: For Oc1ccc(-c2ccccc2)c(Cl)c1, which AC50 [2] is on record?
Answer: active: 13.4 µM

Question: And the outcome [3]?
Answer: inactive

Question: With CCCCc1ccc2ccccc2c1S(=O)(=O)O as the molecule, how does the AC50 [1] read?
Answer: inconclusive: 50 µM

Question: What about the AC50 [6] of the same molecule?
Answer: inconclusive: 0.0433 µM

Question: Which AC50 [2] does the source give for CC(C)c1ccc2c(C(C)C)cc(C(C)C)c(S(=O)(=O)O)c2c1 here?
Answer: inconclusive: 0.000847 µM

Question: What about the AC50 [3] of the same molecule?
Answer: inconclusive: 11.7 µM

Question: For O=C1CCCCC1, which outcome [2] is on record?
Answer: inactive

Question: What about the AC50 [3] of the same molecule?
Answer: inconclusive: 50 µM

Question: And the outcome [5]?
Answer: inactive

Question: For CCC(C)N(C)C(=O)c1cc2ccccc2c(-c2ccccc2Cl)n1 (centres undefined), which outcome [2] is on record?
Answer: inactive

Question: For CCCCCCCCCCCCCCCC(=O)OC[C@H](O)[C@H]1OC(=O)C(O)=C1O, which outcome [1] is on record?
Answer: inactive

Question: Which AC50 [2] does the source give for O=C(O)c1ccccc1C(=O)OCc1ccccc1 here?
Answer: inconclusive: 50 µM

Question: What about the AC50 [3] of the same molecule?
Answer: inconclusive: 50 µM

Question: What about the outcome [4] of the same molecule?
Answer: inactive

Question: What about the outcome [5] of the same molecule?
Answer: inactive

Question: For C=C1C[C@H]2[C@@H]3C=C(C)C4=CC(=O)CC[C@]4(C)[C@H]3CC[C@]2(C)[C@@]1(OC(C)=O)C(C)=O, which AC50 [2] is on record?
Answer: active: 4 µM

Question: With OC[C@H]1O[C@@H](O[C@H]2[C@H](O)[C@@H](O)[C@H](O)O[C@@H]2CO)[C@H](O)[C@@H](O)[C@H]1O as the molecule, how does the AC50 [2] read?
Answer: inconclusive: 50 µM

Question: What about the outcome [3] of the same molecule?
Answer: inactive

Question: And the AC50 [4]?
Answer: inconclusive: 50 µM

Question: And the outcome [5]?
Answer: inactive

Question: And the outcome [6]?
Answer: inactive

Question: What about the outcome [8] of the same molecule?
Answer: inactive

Question: What does the source list for COc1cc(O)c(C(=O)c2ccccc2)cc1S(=O)(=O)O?
Answer: AC50 [2]: inconclusive: 50 µM; AC50 [3]: inconclusive: 9.92 µM; AC50 [4]: inconclusive: 50 µM; outcome [5]: inactive

Question: Which AC50 [2] does the source give for CCCCCCCCCCCCCCCCOS(=O)(=O)O here?
Answer: inconclusive: 24.9 µM

Question: What about the AC50 [3] of the same molecule?
Answer: inconclusive: 0.0173 µM

Question: What about the AC50 [4] of the same molecule?
Answer: inconclusive: 24.9 µM

Question: What about the AC50 [5] of the same molecule?
Answer: inconclusive: 22.5 µM

Question: What does the source list for CC(C)=CCC[C@H](C)CCO?
Answer: outcome [2]: inactive; outcome [3]: inactive

Question: What does the source list for CC(C)c1ccc2cc(C(C)C)ccc2c1?
Answer: AC50 [2]: inconclusive: 50 µM; outcome [3]: inactive

Question: What does the source list for CCN(CC)C(=O)c1cc(S(=O)(=O)Cc2ccccc2)c(N2CCC(c3ccccc3)CC2)cc1N(CC)CCN(C)C?
Answer: AC50 [9]: active: 40 µM; outcome [5]: inactive; outcome [6]: inactive; outcome [10]: inactive

Question: With CCCCCCCCN(C)CCCCCCCC as the molecule, how does the AC50 [2] read?
Answer: inconclusive: 50 µM

Question: What about the AC50 [3] of the same molecule?
Answer: inconclusive: 50 µM

Question: And the AC50 [5]?
Answer: inconclusive: 50 µM

Question: What about the AC50 [6] of the same molecule?
Answer: inconclusive: 0.0002 µM

Question: What about the AC50 [8] of the same molecule?
Answer: inconclusive: 0.0002 µM

Question: For O=C(O)Cc1ccccc1Nc1c(Cl)cccc1Cl, which outcome [1] is on record?
Answer: inactive

Question: For CCCCCCCCCC=CCC1CC(=O)OC1=O (centres undefined), which AC50 [2] is on record?
Answer: inconclusive: 50 µM

Question: What about the AC50 [3] of the same molecule?
Answer: inconclusive: 50 µM

Question: What about the AC50 [5] of the same molecule?
Answer: inconclusive: 50 µM

Question: And the AC50 [6]?
Answer: inconclusive: 0.000337 µM

Question: For O=C(Nc1ccc(Cl)cc1)Nc1ccc(Cl)c(Cl)c1, which AC50 [1] is on record?
Answer: active: 5.24 µM

Question: What about the AC50 [2] of the same molecule?
Answer: inconclusive: 50 µM

Question: What about the outcome [3] of the same molecule?
Answer: inactive

Question: And the AC50 [5]?
Answer: inconclusive: 50 µM

Question: And the AC50 [6]?
Answer: active: 19.8 µM

Question: What about the AC50 [8] of the same molecule?
Answer: active: 0.393 µM

Question: Which results are given for N#CSCSc1nc2ccccc2s1?
Answer: AC50 [1]: active: 9.92 µM; AC50 [2]: active: 13 µM; AC50 [4]: active: 12.8 µM; outcome [5]: inactive; AC50 [7]: inconclusive: 100 µM; AC50 [8]: inconclusive: 0.0002 µM

Question: Which AC50 [1] does the source give for Cc1c(C)c2c(c(C)c1O)CCC(C)(COc1ccc(CC3SC(=O)NC3=O)cc1)O2 (centres undefined) here?
Answer: inconclusive: 50 µM

Question: What about the outcome [3] of the same molecule?
Answer: inactive

Question: And the AC50 [5]?
Answer: inconclusive: 50 µM

Question: Which AC50 [1] does the source give for Oc1ccc(/C=C/c2cc(O)cc(O)c2)cc1 here?
Answer: active: 5.07 µM

Question: What about the AC50 [2] of the same molecule?
Answer: inconclusive: 9.92 µM

Question: What about the AC50 [4] of the same molecule?
Answer: inconclusive: 50 µM

Question: And the AC50 [5]?
Answer: inconclusive: 50 µM

Question: What about the AC50 [11] of the same molecule?
Answer: active: 40.5 µM
